This note sets out measurements from PubChem BioAssay AID256 (DTP/NCI, 2004).

The subject of this assay is CD2F1 mice, L1210 leukemia ip, survival T/C. Description: NCI In Vivo Anticancer Drug Screen. Data for tumor model L1210 Leukemia (intraperitoneal) in CD2F1 (CDF1) mice. Particulars: higher T/C = longer survival. The procedure, abridged:
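Each value reflects a quotient of treated over vehicle control outcomes in mice with a transplanted tumor.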

[1] abbreviates: T/C endpoint: mean survival time, dose: 200.0 mg/kg/injection, schedule: Q04DX003 (ip), vehicle: saline with Tween-80.
The mark [2] stands for this setting: T/C endpoint: mean survival time, dose: 400.0 mg/kg/injection, schedule: Q04DX003 (ip), vehicle: saline with Tween-80.
Where [3] appears, read: T/C endpoint: mean survival time, dose: 50.0 mg/kg/injection, schedule: Q04DX003 (ip), vehicle: saline with Tween-80.
Where [4] appears, read: T/C endpoint: mean survival time, dose: 100.0 mg/kg/injection, schedule: Q04DX003 (ip), vehicle: saline with Tween-80.

Structures are written as SMILES. The list is a part of this screen's results and no random one: it gathers tests that were run many times, whatever their T/C, doses with no T/C, and many T/C values between a quarter and a half above the control. Other doses and runs of a compound stand elsewhere. T/C: endpoint of the treated group in % of that of the vehicle group. Some entries give survivors of the animals treated and no T/C: the source files T/C as zero there, which appears to mark a toxic dose or a test without result, not a measured value. Some doses without a T/C left all or most animals alive at the check, yet need not have been tolerated: survival well below the control is almost never listed, so the zero probably covers shortened survival too. Counts of survivors are from the toxicity check (mostly the fifth day) where no day follows; animals may have died later. Schedule codes are those of the source, taken here to give the interval after Q, in days (D) or hours (H), and the number of doses after X. Some schedule codes hold Z or #, which are not explained here. Some molecules as drawn cover several salts, stereoisomers or complexes of the source; a dose is that of the sample tested. Some entries were tested several times; their values stand side by side, smallest first. Where survival is the endpoint, the PubChem record calls one and a half times the control and up active, and a quarter to a half above the control has no call in these data; cut-offs in other NCI protocols can differ. Some T/C values carry the count of animals alive at the toxicity check (mostly the fifth day); where none is given, no animal had died by that day.

On to `CNNCc1ccc(C(=O)NC(N)=O)cc1`, for which the T/C (T/C endpoint: mean survival time, dose: 32.0 mg/kg/injection, schedule: Q03HX024 (ip), vehicle: saline) was 133 % of control [9 of 10 alive]; the T/C (T/C endpoint: mean survival time, dose: 64.0 mg/kg/injection, schedule: Q01DX008 (ip), vehicle: saline) is 128 % of control; the T/C (T/C endpoint: mean survival time, dose: 64.0 mg/kg/injection, schedule: Q01DX009 (oral), vehicle: saline) is 132 % of control; the T/C (T/C endpoint: mean survival time, dose: 64.0 mg/kg/injection, schedule: Q03HX016 (ip), vehicle: saline) is 127 % of control; the T/C (T/C endpoint: mean survival time, dose: 64.0 mg/kg/injection, schedule: Q03HX024 (ip), vehicle: saline) was 135 % of control; the T/C (T/C endpoint: mean survival time, dose: 100.0 mg/kg/injection, schedule: Q01DX Z (ip), vehicle: saline) was 129 % of control. For the same molecule, the T/C was 131 % of control (T/C endpoint: mean survival time, dose: 128.0 mg/kg/injection, schedule: Q01DX008 (ip), vehicle: saline); 126 % of control (T/C endpoint: mean survival time, dose: 128.0 mg/kg/injection, schedule: Q03HX008 (ip), vehicle: saline); 134 % of control (T/C endpoint: mean survival time, dose: 128.0 mg/kg/injection, schedule: Q03HX016 (ip), vehicle: saline); 132 % of control (T/C endpoint: mean survival time, dose: 148.0 mg/kg/injection, schedule: Q01DX Z (ip), vehicle: saline); 126 % of control (T/C endpoint: mean survival time, dose: 256.0 mg/kg/injection, schedule: Q01DX005 (iv), vehicle: saline); 139 % of control (T/C endpoint: mean survival time, dose: 256.0 mg/kg/injection, schedule: Q01DX008 (ip), vehicle: saline). The T/C was 131 % of control [9 of 10 alive] (T/C endpoint: mean survival time, dose: 512.0 mg/kg/injection, schedule: Q01DX001 (oral), vehicle: saline) and 126 % of control (T/C endpoint: mean survival time, dose: 512.0 mg/kg/injection, schedule: Q04DX003 (ip), vehicle: saline). In addition, the survivor count by setting is: (T/C endpoint: mean survival time, dose: 500.0 mg/kg/injection, schedule: Q01DX Z (ip), vehicle: saline) 0 of 6; (T/C endpoint: mean survival time, dose: 512.0 mg/kg/injection, schedule: Q01DX008 (ip), vehicle: saline) 4 of 10; (T/C endpoint: mean survival time, dose: 512.0 mg/kg/injection, schedule: Q01DX009 (oral), vehicle: saline) 9 of 10; (T/C endpoint: mean survival time, dose: 1024.0 mg/kg/injection, schedule: Q01DX001 (ip), vehicle: saline) 0 of 10; (T/C endpoint: mean survival time, dose: 1024.0 mg/kg/injection, schedule: Q01DX001 (iv), vehicle: saline) 0 of 10; (T/C endpoint: mean survival time, dose: 1024.0 mg/kg/injection, schedule: Q01DX001 (oral), vehicle: saline) 4 of 10. For the same molecule, the survivor count (T/C endpoint: mean survival time, dose: 1024.0 mg/kg/injection, schedule: Q08DX002 (ip), vehicle: saline) is 0 of 10.

For the molecule `CCN1/C(=C/C(C)=C/c2sc3ccccc3[n+]2CC)Sc2ccccc21`, the survivor count (T/C endpoint: mean survival time, dose: 1.25 mg/kg/injection, schedule: Q01DX001 (ip), vehicle: other) is reported as 2 of 6; the survivor count (T/C endpoint: mean survival time, dose: 2.5 mg/kg/injection, schedule: Q01DX001 (ip), vehicle: other) is 2 of 6; the survivor count (T/C endpoint: mean survival time, dose: 75.0 mg/kg/injection, schedule: Q01DX001 (ip), vehicle: other) was 0 of 6; the survivor count (T/C endpoint: mean survival time, dose: 150.0 mg/kg/injection, schedule: Q01DX001 (ip), vehicle: other) is listed as 0 of 6; the survivor count (T/C endpoint: mean survival time, dose: 300.0 mg/kg/injection, schedule: Q01DX001 (ip), vehicle: other) is 0 of 6; the survivor count (T/C endpoint: mean survival time, dose: 800.0 micrograms/kg/injection, schedule: Q04DX003 (ip), vehicle: Klucel (hydroxypropylcellulose) (HPC)) is listed as 1 of 6. For the same molecule, the survivor count (T/C endpoint: mean survival time, dose: 1600.0 micrograms/kg/injection, schedule: Q04DX003 (ip), vehicle: Klucel (hydroxypropylcellulose) (HPC)) is listed as 3 of 6.

With `Cc1cccc(-n2c(N)cc(=O)[nH]c2=S)n1`, the survivor count is recorded as 0 of 6 under setting [1] and 0 of 6 under setting [2].

Take `S=P(N1CCOCC1)(N1CC1)N1CC1`: the T/C by setting is: (T/C endpoint: mean survival time, dose: 10.0 mg/kg/injection, schedule: Q01DX009 (ip), vehicle: saline) 132 % of control; (T/C endpoint: mean survival time, dose: 20.0 mg/kg/injection, schedule: Q03DX003 (ip), vehicle: saline) 148 % of control; (T/C endpoint: mean survival time, dose: 20.0 mg/kg/injection, schedule: Q04DX003 (ip), vehicle: saline) 138 % of control. The survivor count is reported as 6 of 6 (T/C endpoint: mean survival time, dose: 50.0 mg/kg/injection, schedule: Q01DX Z (ip), vehicle: carboxymethylcellulose (CMC)) and 6 of 6 (T/C endpoint: mean survival time, dose: 100.0 mg/kg/injection, schedule: Q01DX Z (ip), vehicle: carboxymethylcellulose (CMC)).

Consider `CCOC(=O)c1c[nH]c2ccc3c(nc(C)n3C)c2c1=O`, for which the survivor count (T/C endpoint: median survival time, dose: 400.0 mg/kg/injection, schedule: Q01DX005 (ip), vehicle: Klucel (hydroxypropylcellulose) (HPC)) was 4 of 6.

`Nc1nc(=S)nc(N)[nH]1`: the survivor count under setting [3] was 3 of 6, the survivor count under setting [4] is 0 of 6 and the survivor count under setting [1] was 0 of 6.

For `CC(=O)Nc1ccc(N=NN(C)C)cc1`, for the setting “T/C endpoint: mean survival time, dose: 18.75 mg/kg/injection, schedule: Q01DX009 (ip), vehicle: Klucel (hydroxypropylcellulose) (HPC)”, the T/C was 140 [5 of 6 alive] and 142 % of control [4 of 6 alive]. In addition, the survivor count reads like this: (T/C endpoint: mean survival time, dose: 37.5 mg/kg/injection, schedule: Q01DX009 (ip), vehicle: Klucel (hydroxypropylcellulose) (HPC)) 0 of 6; (T/C endpoint: mean survival time, dose: 75.0 mg/kg/injection, schedule: Q01DX009 (ip), vehicle: Klucel (hydroxypropylcellulose) (HPC)) 0 of 6; (T/C endpoint: mean survival time, dose: 150.0 mg/kg/injection, schedule: Q01DX009 (ip), vehicle: Klucel (hydroxypropylcellulose) (HPC)) 0 of 6; (T/C endpoint: mean survival time, dose: 300.0 mg/kg/injection, schedule: Q01DX009 (ip), vehicle: Klucel (hydroxypropylcellulose) (HPC)) 0 of 6.

`CC(C)(C)N[P+](Cc1ccc(C[P+](NC(C)(C)C)(NC(C)(C)C)c2ccccc2)cc1)(NC(C)(C)C)c1ccccc1`: the survivor count runs as follows: (T/C endpoint: mean survival time, dose: 6.25 mg/kg/injection, schedule: Q04DX003 (ip), vehicle: saline) 3 of 6; (T/C endpoint: mean survival time, dose: 12.5 mg/kg/injection, schedule: Q04DX003 (ip), vehicle: saline with Tween-80) 1 of 6; (T/C endpoint: mean survival time, dose: 25.0 mg/kg/injection, schedule: Q04DX003 (ip), vehicle: saline with Tween-80) 1 of 6; under setting [3], 0 of 6; under setting [4], 0 of 6; under setting [1], 0 of 6. Besides, the survivor count under setting [2] was 0 of 6.

Take `CS(=O)(=O)OCCN(CCOS(C)(=O)=O)c1ccc(C=O)cc1`: the T/C is 139 % of control (T/C endpoint: mean survival time, dose: 3.12 mg/kg/injection, schedule: Q01DX009 (ip), vehicle: saline); 135 % of control (T/C endpoint: mean survival time, dose: 6.25 mg/kg/injection, schedule: Q01DX009 (ip), vehicle: saline); 125 % of control (T/C endpoint: mean survival time, dose: 12.5 mg/kg/injection, schedule: Q01DX009 (ip), vehicle: saline with Tween-80); 130 % of control (T/C endpoint: mean survival time, dose: 25.0 mg/kg/injection, schedule: Q01DX009 (ip), vehicle: saline with Tween-80). For the same molecule, the survivor count by setting is: (T/C endpoint: mean survival time, dose: 50.0 mg/kg/injection, schedule: Q01DX009 (ip), vehicle: saline) 5 of 6; (T/C endpoint: mean survival time, dose: 100.0 mg/kg/injection, schedule: Q01DX009 (ip), vehicle: saline with Tween-80) 3 of 6 and 5 of 6; (T/C endpoint: mean survival time, dose: 100.0 mg/kg/injection, schedule: Q01DX009 (ip), vehicle: saline) 4 of 6.

`CCOC(=O)c1ccc(NC(=O)NC(Cc2ccccc2)c2ccccc2)cc1` (stereo unspecified): the survivor count is, setting by setting: under setting [1], 6 of 6; (T/C endpoint: mean survival time, dose: 400.0 mg/kg/injection, schedule: Q04DX002 (ip), vehicle: saline with Tween-80) 3 of 3; under setting [2], 6 of 6.
